From PubChem BioAssay AID248 (DTP/NCI, 2004)
The list is a part of this screen's results and no random one: it gathers tests that were run many times, whatever their T/C, doses with no T/C, and many T/C values between a quarter and a half above the control. Further doses and runs are listed elsewhere. T/C is the treated group as % of the vehicle group. Some entries give survivors of the animals treated and no T/C: the source files T/C as zero there, which appears to mark a toxic dose or a test without result, not a measured value. Counts of survivors are from the toxicity check (mostly the fifth day) where no day follows; animals may have died later. Schedule codes are those of the source, read here as Q, the interval in days (D) or hours (H), X, the number of doses.

Tested on: L1210 leukemia ip in BDF1 mice, survival T/C
Assay: NCI In Vivo Anticancer Drug Screen. Data for tumor model L1210 Leukemia (intraperitoneal) in B6D2F1 (BDF1) mice
Settings: T/C endpoint: mean survival time, higher T/C = longer survival

Q: For `NC(N)=N/N=C(\C=N\N=C(N)N)c1ccc(CCc2ccc(C(/C=N/N=C(N)N)=N\N=C(N)N)cc2)cc1`, which survivor count (dose: 6.25 mg/kg/injection, schedule: Q04DX003 (ip), vehicle: saline) is on record?
A: 2 of 6

Q: What about the survivor count (dose: 12.5 mg/kg/injection, schedule: Q04DX003 (ip), vehicle: saline) of the same compound?
A: 2 of 6

Q: What about the survivor count (dose: 25.0 mg/kg/injection, schedule: Q04DX003 (ip), vehicle: saline) of the same compound?
A: 0 of 6

Q: And the survivor count (dose: 50.0 mg/kg/injection, schedule: Q04DX003 (ip), vehicle: saline)?
A: 1 of 6

Q: What about the survivor count (dose: 100.0 mg/kg/injection, schedule: Q04DX003 (ip), vehicle: saline) of the same compound?
A: 0 of 6

Q: What about the survivor count (dose: 200.0 mg/kg/injection, schedule: Q04DX003 (ip), vehicle: saline) of the same compound?
A: 0 of 6

Q: What about the survivor count (dose: 400.0 mg/kg/injection, schedule: Q04DX003 (ip), vehicle: saline) of the same compound?
A: 0 of 6

Q: With `O=[N+]([O-])c1ccc(C=Nc2ccccc2)s1` as the compound, how does the survivor count (dose: 400.0 mg/kg/injection, schedule: Q04DX003 (ip), vehicle: Klucel (hydroxypropylcellulose) (HPC)) read?
A: 1 of 6

Q: Which survivor count (dose: 400.0 mg/kg/injection, schedule: Q04DX003 (ip), vehicle: other) does the source give for `Cc1oncc1/C=C/c1ccon1` here?
A: 1 of 6

Q: Which survivor count (dose: 200.0 mg/kg/injection, schedule: Q01DX001 (ip), vehicle: saline) does the source give for `O=[N+]([O-])c1ccc(N2CCN=N2)cc1` here?
A: 2 of 6

Q: And the survivor count (dose: 200.0 mg/kg/injection, schedule: Q04DX003 (ip), vehicle: saline sonified)?
A: 3 of 6

Q: What about the survivor count (dose: 400.0 mg/kg/injection, schedule: Q04DX003 (ip), vehicle: saline sonified) of the same compound?
A: 0 of 6
